PubChem BioAssay AID330 (DTP/NCI, 2004)
The list shows only some results of the screen, not a fair sample: it gathers tests that were run many times, whatever their T/C, doses with no T/C, and many T/C values between a quarter and a half above the control. Other doses and runs of a compound stand elsewhere. T/C is the treated group as % of the vehicle group. Some doses have a count of surviving animals in place of a T/C: the source files T/C as zero there, which appears to mark a toxic dose or a test without result, not a measured value. Some survivor counts are full or nearly so, which does not show that the dose was tolerated: the source hardly ever lists a survival T/C far under the control, and the zero likely stands for such cases as well. Counts of survivors are from the toxicity check (mostly the fifth day) where no day follows; animals may have died later. Schedules are NCI's codes, taken here to give the interval after Q, in days (D) or hours (H), and the number of doses after X. Some molecules as drawn cover several salts, stereoisomers or complexes of the source; a dose is that of the sample tested. Some entries were tested several times; the results are listed from low to high. For survival time, this PubChem deposit counts one and a half times the control or more as active, and values a quarter to a half above the control carry no call in these data; other NCI protocols may use other cut-offs. Some T/C values carry the count of animals alive at the toxicity check (mostly the fifth day); without a count, all were alive then. Brackets with × stand for listed records that agree.

Tested on: P388 leukemia ip, CD2F1 mice, survival T/C
Test: NCI In Vivo Anticancer Drug Screen. Data for tumor model P388 Leukemia (intraperitoneal) in CD2F1 (CDF1) mice
Conditions: T/C endpoint: median survival time, higher T/C = longer survival
[1] = dose: 10.0 mg/kg/injection, schedule: Q01DX009 (ip), vehicle: water

## COc1cc2c[n+](C)c3c4cc5c(cc4ccc3c2cc1OC)OCO5
dose: 1.0 mg/kg/injection, schedule: Q01DX009 (ip), vehicle: saline
  T/C: 133 % of control
dose: 1.0 mg/kg/injection, schedule: Q01DX009 (ip), vehicle: water
  T/C: 107, 123, 126, 129, 141 % of control
dose: 1.0 mg/kg/injection, schedule: Q03HX016 (ip), vehicle: saline with Tween-80
  T/C: 131 % of control
dose: 1.0 mg/kg/injection, schedule: Q03HX024 (ip), vehicle: saline with Tween-80
  T/C: 134 % of control
dose: 1.25 mg/kg/injection, schedule: Q01DX009 (ip), vehicle: DMSO
  T/C: 126 % of control
dose: 1.25 mg/kg/injection, schedule: Q01DX009 (ip), vehicle: saline
  T/C: 125 % of control
dose: 1.25 mg/kg/injection, schedule: Q01DX009 (ip), vehicle: water
  T/C: 109, 113, 114, 115 (2×), 119, 123, 125, 126, 136 % of control
dose: 2.0 mg/kg/injection, schedule: Q01DX009 (ip), vehicle: distilled water + Tween-80
  T/C: 128, 129, 131, 135, 136 % of control
dose: 2.0 mg/kg/injection, schedule: Q01DX009 (ip), vehicle: saline
  T/C: 145 % of control
dose: 2.0 mg/kg/injection, schedule: Q01DX009 (ip), vehicle: water, evaluated on day 30
  T/C: 109, 129, 131, 132, 133, 137 % of control
dose: 2.0 mg/kg/injection, schedule: Q01DX009 (ip), vehicle: water, evaluated on day 60
  T/C: 118 % of control
dose: 2.0 mg/kg/injection, schedule: Q03HX016 (ip), vehicle: saline with Tween-80
  T/C: 145 % of control
dose: 2.0 mg/kg/injection, schedule: Q03HX024 (ip), vehicle: water
  T/C: 127 % of control
dose: 2.5 mg/kg/injection, schedule: Q01DX009 (ip), vehicle: DMSO
  T/C: 134 and 141 % of control (2×)
dose: 2.5 mg/kg/injection, schedule: Q01DX009 (ip), vehicle: saline
  T/C: 130 and 140 % of control
dose: 2.5 mg/kg/injection, schedule: Q01DX009 (ip), vehicle: water
  T/C: 107, 116, 120, 122, 123, 129, 132, 136, 148, 151 % of control
dose: 3.12 mg/kg/injection, schedule: Q01DX009 (ip), vehicle: water
  T/C: 140 [9 of 10 alive] and 147 % of control
dose: 4.0 mg/kg/injection, schedule: Q01DX005 (ip), vehicle: distilled water + Tween-80
  T/C: 129 % of control
dose: 4.0 mg/kg/injection, schedule: Q01DX005 (ip), vehicle: saline
  T/C: 129 % of control
dose: 4.0 mg/kg/injection, schedule: Q01DX009 (ip), vehicle: distilled water + Tween-80
  T/C: 133, 134, 139, 140, 152 % of control
dose: 4.0 mg/kg/injection, schedule: Q01DX009 (ip), vehicle: water, evaluated on day 30
  T/C: 122, 137, 140, 141, 143, 148 % of control
dose: 4.0 mg/kg/injection, schedule: Q01DX009 (ip), vehicle: water, evaluated on day 60
  T/C: 122 % of control
dose: 4.0 mg/kg/injection, schedule: Q03HX008 (ip), vehicle: saline with Tween-80
  T/C: 135 % of control
dose: 4.0 mg/kg/injection, schedule: Q03HX016 (ip), vehicle: saline with Tween-80
  T/C: 147 % of control
dose: 4.0 mg/kg/injection, schedule: Q03HX024 (ip), vehicle: saline with Tween-80
  T/C: 147 % of control
dose: 4.0 mg/kg/injection, schedule: Q03HX024 (ip), vehicle: water
  T/C: 130 % of control
dose: 4.0 mg/kg/injection, schedule: Q04DX003 (ip), vehicle: other
  T/C: 125 % of control
dose: 5.0 mg/kg/injection, schedule: Q01DX009 (ip), vehicle: DMSO
  T/C: 145 and 148 % of control
dose: 5.0 mg/kg/injection, schedule: Q01DX009 (ip), vehicle: saline
  T/C: 136 and 140 % of control
dose: 5.0 mg/kg/injection, schedule: Q01DX009 (ip), vehicle: water
  T/C: 113 [5 of 6 alive], 118, 123, 123 [5 of 6 alive], 124, 131, 133, 137, 147, 151, 155 % of control
dose: 6.25 mg/kg/injection, schedule: Q01DX009 (ip), vehicle: saline with Tween-80
  T/C: 142 % of control
dose: 6.25 mg/kg/injection, schedule: Q01DX009 (ip), vehicle: water
  T/C: 141 and 149 % of control
dose: 8.0 mg/kg/injection, schedule: Q01DX005 (ip), vehicle: distilled water + Tween-80
  T/C: 134 % of control
dose: 8.0 mg/kg/injection, schedule: Q01DX005 (ip), vehicle: saline
  T/C: 131 % of control
dose: 8.0 mg/kg/injection, schedule: Q01DX009 (ip), vehicle: distilled water + Tween-80
  T/C: 139, 144 (2×), 149, 150 % of control
dose: 8.0 mg/kg/injection, schedule: Q01DX009 (ip), vehicle: water, evaluated on day 30
  T/C: 117, 137, 142, 146, 151, 157 % of control
dose: 8.0 mg/kg/injection, schedule: Q01DX009 (ip), vehicle: water, evaluated on day 60
  T/C: 130 % of control
dose: 8.0 mg/kg/injection, schedule: Q03HX008 (ip), vehicle: saline with Tween-80
  T/C: 142 % of control
dose: 8.0 mg/kg/injection, schedule: Q03HX024 (ip), vehicle: water
  survivor count: 8 of 10
dose: 8.0 mg/kg/injection, schedule: Q04DX003 (ip), vehicle: other
  T/C: 133 and 141 % of control
dose: 8.0 mg/kg/injection, schedule: Q04DX003 (ip), vehicle: saline with Tween-80
  T/C: 127 % of control
dose: 8.0 mg/kg/injection, schedule: Q08DX002 (ip), vehicle: saline with Tween-80
  T/C: 126 % of control
dose: 10.0 mg/kg/injection, schedule: Q01DX005 (ip), vehicle: Klucel (hydroxypropylcellulose) (HPC), evaluated on day 30
  T/C: 93, 94, 106, 122, 123 (2×), 132, 133 (2×), 134, 138 (3×), 139 (2×), 141 (2×), 143, 144, 150, 152, 153 (3×), 154, 155, 156, 157, 164, 166, 174, 176 % of control
dose: 10.0 mg/kg/injection, schedule: Q01DX005 (ip), vehicle: Klucel (hydroxypropylcellulose) (HPC), evaluated on day 35
  T/C: 151 % of control
dose: 10.0 mg/kg/injection, schedule: Q01DX009 (ip), vehicle: DMSO
  T/C: 144 % of control
dose: 10.0 mg/kg/injection, schedule: Q01DX009 (ip), vehicle: Klucel (hydroxypropylcellulose) (HPC), evaluated on day 30
  T/C: 102, 126, 127 (2×), 128, 132, 133, 134, 139, 141 (2×), 142, 144 (2×), 150 (2×), 151, 155, 159 (3×), 160, 161, 163, 164 (3×), 165, 169, 171, 178 % of control
dose: 10.0 mg/kg/injection, schedule: Q01DX009 (ip), vehicle: Klucel (hydroxypropylcellulose) (HPC), evaluated on day 35
  T/C: 145 and 151 % of control
dose: 10.0 mg/kg/injection, schedule: Q01DX009 (ip), vehicle: Klucel (hydroxypropylcellulose) (HPC)
  survivor count: 3 of 6 and 6 of 6
dose: 10.0 mg/kg/injection, schedule: Q01DX009 (ip), vehicle: saline
  T/C: 146 and 147 % of control
[1]
  T/C: 103, 125, 129, 140, 142, 152, 161 % of control (2×)
  survivor count: 5 of 6 and 6 of 6
dose: 12.5 mg/kg/injection, schedule: Q01DX009 (ip), vehicle: saline with Tween-80
  T/C: 126 % of control
dose: 16.0 mg/kg/injection, schedule: Q01DX005 (ip), vehicle: distilled water + Tween-80
  T/C: 139 % of control
dose: 16.0 mg/kg/injection, schedule: Q01DX005 (ip), vehicle: saline
  T/C: 140 % of control
dose: 16.0 mg/kg/injection, schedule: Q01DX009 (ip), vehicle: distilled water + Tween-80
  T/C: 95, 146, 152, 155, 170 % of control
dose: 16.0 mg/kg/injection, schedule: Q01DX009 (ip), vehicle: water, evaluated on day 30
  T/C: 102, 146, 159, 172, 173, 185 % of control
dose: 16.0 mg/kg/injection, schedule: Q01DX009 (ip), vehicle: water, evaluated on day 60
  T/C: 129 % of control
dose: 16.0 mg/kg/injection, schedule: Q01DX009 (sc), vehicle: water
  survivor count: 10 of 10
dose: 16.0 mg/kg/injection, schedule: Q03HX008 (ip), vehicle: water
  survivor count: 0 of 10
dose: 16.0 mg/kg/injection, schedule: Q03HX016 (ip), vehicle: saline with Tween-80
  T/C: 148 % of control
dose: 16.0 mg/kg/injection, schedule: Q03HX016 (ip), vehicle: water
  survivor count: 0 of 10
dose: 16.0 mg/kg/injection, schedule: Q03HX024 (ip), vehicle: saline with Tween-80
  T/C: 138 % of control
dose: 16.0 mg/kg/injection, schedule: Q03HX024 (ip), vehicle: water
  survivor count: 0 of 10
dose: 16.0 mg/kg/injection, schedule: Q04DX003 (ip), vehicle: other
  T/C: 133 and 142 % of control
dose: 16.0 mg/kg/injection, schedule: Q04DX003 (ip), vehicle: saline with Tween-80
  T/C: 132 % of control
dose: 16.0 mg/kg/injection, schedule: Q08DX002 (ip), vehicle: saline with Tween-80
  T/C: 132 % of control
dose: 20.0 mg/kg/injection, schedule: Q01DX005 (ip), vehicle: Klucel (hydroxypropylcellulose) (HPC), evaluated on day 30
  T/C: 90, 123, 129, 132, 140, 142 (2×), 146 (2×), 147, 148 (2×), 150, 151, 153 (2×), 154, 156 (2×), 157 (2×), 160 [5 of 6 alive], 162, 163, 169, 170, 171, 172, 175, 175 [5 of 6 alive], 180 % of control
dose: 20.0 mg/kg/injection, schedule: Q01DX005 (ip), vehicle: Klucel (hydroxypropylcellulose) (HPC), evaluated on day 35
  T/C: 161 % of control
dose: 20.0 mg/kg/injection, schedule: Q01DX005 (ip), vehicle: Klucel (hydroxypropylcellulose) (HPC)
  survivor count: 3 of 3
dose: 20.0 mg/kg/injection, schedule: Q01DX009 (ip), vehicle: Klucel (hydroxypropylcellulose) (HPC), evaluated on day 30
  T/C: 112, 127, 128, 129, 135, 139, 142, 145, 147, 150, 155, 156, 158 (2×), 160, 161 (2×), 163, 164, 165, 168 [5 of 6 alive], 170, 172, 173, 175 (2×), 181, 192, 194, 199, 200, 218, 220 % of control
dose: 20.0 mg/kg/injection, schedule: Q01DX009 (ip), vehicle: Klucel (hydroxypropylcellulose) (HPC), evaluated on day 35
  T/C: 169 and 174 % of control
dose: 20.0 mg/kg/injection, schedule: Q01DX009 (ip), vehicle: saline
  T/C: 148 % of control
dose: 20.0 mg/kg/injection, schedule: Q01DX009 (ip), vehicle: water
  T/C: 145, 148, 151, 158, 176 % of control
